From the supplement of paper PMC10849652
This is one part of the list.

Sequences of proteins named here, by UniProt entry; tags and fusion partners are left off. A change or cut given only in a name is not applied to a line headed by its entry.
UniProt Q9UPR3: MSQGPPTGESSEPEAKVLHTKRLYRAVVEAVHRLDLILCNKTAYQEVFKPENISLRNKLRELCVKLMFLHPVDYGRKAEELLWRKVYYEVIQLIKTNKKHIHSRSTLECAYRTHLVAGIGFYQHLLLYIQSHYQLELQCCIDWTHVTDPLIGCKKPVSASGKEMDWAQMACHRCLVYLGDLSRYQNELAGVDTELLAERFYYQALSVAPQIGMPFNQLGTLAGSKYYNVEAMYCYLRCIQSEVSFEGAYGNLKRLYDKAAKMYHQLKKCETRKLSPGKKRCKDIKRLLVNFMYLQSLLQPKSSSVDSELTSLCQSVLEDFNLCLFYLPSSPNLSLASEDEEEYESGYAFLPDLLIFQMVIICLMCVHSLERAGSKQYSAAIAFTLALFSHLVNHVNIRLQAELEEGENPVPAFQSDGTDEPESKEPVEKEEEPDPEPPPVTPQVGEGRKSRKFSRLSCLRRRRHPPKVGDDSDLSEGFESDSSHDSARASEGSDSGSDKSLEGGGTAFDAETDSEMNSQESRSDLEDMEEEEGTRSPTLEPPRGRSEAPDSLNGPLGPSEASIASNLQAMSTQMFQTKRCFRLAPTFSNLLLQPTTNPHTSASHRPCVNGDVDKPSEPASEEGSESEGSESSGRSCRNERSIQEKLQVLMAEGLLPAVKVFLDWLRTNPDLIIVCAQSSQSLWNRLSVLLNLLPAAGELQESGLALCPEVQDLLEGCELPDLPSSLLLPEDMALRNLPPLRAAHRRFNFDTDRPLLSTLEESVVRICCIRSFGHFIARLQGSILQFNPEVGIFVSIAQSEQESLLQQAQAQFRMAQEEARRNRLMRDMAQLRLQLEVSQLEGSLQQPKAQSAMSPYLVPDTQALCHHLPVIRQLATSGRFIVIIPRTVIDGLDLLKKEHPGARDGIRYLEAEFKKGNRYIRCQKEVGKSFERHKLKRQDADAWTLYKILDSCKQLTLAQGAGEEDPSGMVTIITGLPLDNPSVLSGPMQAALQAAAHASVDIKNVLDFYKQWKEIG
UniProt Q92540: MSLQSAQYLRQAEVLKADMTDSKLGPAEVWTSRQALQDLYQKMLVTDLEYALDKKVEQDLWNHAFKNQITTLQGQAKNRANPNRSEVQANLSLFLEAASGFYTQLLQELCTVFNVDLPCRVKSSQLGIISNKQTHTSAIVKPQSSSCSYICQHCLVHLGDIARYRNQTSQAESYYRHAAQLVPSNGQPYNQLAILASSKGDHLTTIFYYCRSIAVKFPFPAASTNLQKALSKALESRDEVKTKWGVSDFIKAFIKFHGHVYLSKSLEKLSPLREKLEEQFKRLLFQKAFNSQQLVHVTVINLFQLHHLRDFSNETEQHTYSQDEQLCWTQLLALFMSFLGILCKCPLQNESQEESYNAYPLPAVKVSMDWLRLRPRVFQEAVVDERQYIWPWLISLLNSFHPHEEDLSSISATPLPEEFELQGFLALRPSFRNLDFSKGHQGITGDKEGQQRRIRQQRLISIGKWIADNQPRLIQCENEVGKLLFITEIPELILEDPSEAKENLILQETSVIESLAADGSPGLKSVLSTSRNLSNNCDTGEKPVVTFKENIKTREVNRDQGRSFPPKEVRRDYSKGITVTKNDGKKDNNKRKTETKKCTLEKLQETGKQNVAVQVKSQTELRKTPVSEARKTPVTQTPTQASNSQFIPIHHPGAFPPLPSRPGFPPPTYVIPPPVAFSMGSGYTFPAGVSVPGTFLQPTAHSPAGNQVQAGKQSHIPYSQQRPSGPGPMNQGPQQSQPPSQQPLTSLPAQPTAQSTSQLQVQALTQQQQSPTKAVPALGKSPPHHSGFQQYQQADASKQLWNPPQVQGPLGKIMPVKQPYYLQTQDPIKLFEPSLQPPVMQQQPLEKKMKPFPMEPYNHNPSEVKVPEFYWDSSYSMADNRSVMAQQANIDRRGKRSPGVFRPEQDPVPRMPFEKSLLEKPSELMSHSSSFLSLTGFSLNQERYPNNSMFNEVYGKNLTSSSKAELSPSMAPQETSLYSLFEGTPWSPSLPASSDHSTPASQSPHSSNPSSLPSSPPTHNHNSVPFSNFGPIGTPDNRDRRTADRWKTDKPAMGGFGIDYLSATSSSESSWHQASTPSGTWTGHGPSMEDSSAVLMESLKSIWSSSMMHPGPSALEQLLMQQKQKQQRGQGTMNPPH
UniProt Q00796: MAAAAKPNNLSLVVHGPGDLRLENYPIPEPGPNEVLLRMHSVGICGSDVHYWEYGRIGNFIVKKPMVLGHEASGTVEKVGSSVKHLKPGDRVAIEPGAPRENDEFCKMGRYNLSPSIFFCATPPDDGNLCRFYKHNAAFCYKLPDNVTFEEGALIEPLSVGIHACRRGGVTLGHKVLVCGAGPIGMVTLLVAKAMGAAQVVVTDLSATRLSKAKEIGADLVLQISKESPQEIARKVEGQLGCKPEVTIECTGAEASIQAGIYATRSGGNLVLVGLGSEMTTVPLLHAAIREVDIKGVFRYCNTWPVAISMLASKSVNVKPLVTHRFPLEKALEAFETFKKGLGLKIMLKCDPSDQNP
UniProt O14745: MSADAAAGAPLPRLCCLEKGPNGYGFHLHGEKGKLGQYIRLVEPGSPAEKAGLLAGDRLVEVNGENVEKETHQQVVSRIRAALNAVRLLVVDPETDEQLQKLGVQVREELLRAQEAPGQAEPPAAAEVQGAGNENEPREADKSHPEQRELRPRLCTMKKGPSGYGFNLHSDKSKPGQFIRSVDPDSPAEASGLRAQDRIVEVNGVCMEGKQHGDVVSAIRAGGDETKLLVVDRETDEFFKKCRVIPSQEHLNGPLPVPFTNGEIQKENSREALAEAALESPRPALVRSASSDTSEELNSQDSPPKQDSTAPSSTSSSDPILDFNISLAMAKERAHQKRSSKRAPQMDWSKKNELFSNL
UniProt O75391: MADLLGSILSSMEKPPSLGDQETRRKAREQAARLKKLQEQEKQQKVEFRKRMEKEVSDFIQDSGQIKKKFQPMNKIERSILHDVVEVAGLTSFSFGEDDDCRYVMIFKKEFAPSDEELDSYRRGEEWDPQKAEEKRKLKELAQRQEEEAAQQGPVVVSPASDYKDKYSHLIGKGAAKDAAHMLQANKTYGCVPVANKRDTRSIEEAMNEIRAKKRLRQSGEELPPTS
UniProt P08621, whole entry, looked up: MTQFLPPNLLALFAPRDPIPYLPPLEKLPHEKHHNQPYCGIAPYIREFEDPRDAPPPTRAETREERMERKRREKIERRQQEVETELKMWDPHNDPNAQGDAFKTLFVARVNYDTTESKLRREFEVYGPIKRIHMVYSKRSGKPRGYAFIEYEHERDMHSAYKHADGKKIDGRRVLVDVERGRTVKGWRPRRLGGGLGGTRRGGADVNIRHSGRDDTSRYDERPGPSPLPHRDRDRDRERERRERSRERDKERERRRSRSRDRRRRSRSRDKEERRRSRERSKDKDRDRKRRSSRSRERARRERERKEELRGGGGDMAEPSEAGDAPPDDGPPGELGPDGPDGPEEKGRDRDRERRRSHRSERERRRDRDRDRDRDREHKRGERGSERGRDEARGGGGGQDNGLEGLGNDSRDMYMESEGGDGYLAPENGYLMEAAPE
UniProt Q96H20: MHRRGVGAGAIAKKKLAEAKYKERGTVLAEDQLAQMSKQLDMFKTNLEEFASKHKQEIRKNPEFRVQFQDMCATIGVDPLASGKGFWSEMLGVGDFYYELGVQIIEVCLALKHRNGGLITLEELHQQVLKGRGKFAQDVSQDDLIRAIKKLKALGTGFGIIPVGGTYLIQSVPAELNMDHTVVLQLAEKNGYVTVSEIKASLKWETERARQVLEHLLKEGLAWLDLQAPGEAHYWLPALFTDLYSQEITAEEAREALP
UniProt Q9Y2E8: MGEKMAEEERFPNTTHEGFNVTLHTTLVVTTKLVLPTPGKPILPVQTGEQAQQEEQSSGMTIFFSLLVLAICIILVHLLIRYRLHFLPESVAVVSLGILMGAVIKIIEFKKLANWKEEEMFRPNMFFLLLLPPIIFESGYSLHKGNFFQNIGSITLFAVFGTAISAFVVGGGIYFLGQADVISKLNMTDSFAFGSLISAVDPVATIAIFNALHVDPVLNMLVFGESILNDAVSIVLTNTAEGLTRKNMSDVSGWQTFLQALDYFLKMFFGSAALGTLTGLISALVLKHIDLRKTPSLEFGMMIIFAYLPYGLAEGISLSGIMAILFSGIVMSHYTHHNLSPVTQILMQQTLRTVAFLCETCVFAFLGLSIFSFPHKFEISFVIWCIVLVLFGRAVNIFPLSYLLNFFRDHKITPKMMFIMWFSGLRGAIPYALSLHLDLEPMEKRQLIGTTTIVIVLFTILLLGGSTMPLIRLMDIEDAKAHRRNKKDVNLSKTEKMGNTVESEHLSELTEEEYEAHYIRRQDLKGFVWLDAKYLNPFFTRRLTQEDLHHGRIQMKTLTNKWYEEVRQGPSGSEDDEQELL
UniProt Q99717: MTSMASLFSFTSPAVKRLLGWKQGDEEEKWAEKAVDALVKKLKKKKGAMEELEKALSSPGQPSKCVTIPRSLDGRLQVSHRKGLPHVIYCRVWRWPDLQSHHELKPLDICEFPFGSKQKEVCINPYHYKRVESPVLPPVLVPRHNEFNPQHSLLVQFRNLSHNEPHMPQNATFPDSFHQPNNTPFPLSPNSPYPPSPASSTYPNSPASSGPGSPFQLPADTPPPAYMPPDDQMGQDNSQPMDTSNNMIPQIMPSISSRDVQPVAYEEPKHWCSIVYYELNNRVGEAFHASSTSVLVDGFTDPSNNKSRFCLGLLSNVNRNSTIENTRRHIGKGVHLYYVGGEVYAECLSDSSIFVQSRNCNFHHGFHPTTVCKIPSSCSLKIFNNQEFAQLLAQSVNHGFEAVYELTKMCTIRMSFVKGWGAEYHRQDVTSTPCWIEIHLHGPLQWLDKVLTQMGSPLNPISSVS
UniProt O95721: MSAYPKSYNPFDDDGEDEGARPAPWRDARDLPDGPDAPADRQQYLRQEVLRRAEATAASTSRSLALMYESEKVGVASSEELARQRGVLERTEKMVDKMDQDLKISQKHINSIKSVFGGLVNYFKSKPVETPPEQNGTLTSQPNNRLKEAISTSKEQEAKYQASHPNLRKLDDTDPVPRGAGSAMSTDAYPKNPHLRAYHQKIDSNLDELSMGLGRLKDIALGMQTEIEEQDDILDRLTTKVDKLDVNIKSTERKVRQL
UniProt O95295: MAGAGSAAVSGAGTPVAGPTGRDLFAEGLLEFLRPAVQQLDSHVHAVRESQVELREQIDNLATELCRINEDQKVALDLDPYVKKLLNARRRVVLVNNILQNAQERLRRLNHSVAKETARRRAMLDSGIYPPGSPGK
UniProt Q9H7B4: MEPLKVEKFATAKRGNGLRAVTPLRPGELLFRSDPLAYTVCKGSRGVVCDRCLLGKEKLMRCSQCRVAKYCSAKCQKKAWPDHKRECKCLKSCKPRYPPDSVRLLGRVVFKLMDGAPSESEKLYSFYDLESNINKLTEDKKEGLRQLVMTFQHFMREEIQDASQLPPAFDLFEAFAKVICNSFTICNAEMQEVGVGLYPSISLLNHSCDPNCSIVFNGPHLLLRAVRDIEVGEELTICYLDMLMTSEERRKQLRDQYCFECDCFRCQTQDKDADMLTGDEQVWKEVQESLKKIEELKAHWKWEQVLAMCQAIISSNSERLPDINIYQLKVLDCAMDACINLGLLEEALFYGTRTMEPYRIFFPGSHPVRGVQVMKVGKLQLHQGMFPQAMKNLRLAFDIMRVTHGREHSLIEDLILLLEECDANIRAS
UniProt Q7Z3B0: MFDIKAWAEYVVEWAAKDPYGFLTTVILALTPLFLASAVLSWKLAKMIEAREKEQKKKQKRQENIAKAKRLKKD
UniProt O75940: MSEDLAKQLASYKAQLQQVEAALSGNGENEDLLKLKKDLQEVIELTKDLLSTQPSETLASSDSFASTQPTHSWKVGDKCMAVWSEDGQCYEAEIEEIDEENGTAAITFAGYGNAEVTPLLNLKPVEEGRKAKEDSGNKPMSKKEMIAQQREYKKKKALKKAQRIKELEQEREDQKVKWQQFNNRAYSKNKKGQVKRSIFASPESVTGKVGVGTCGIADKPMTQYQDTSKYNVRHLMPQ

How the values were obtained:
Test in all cases: log2 fold change, soluble protein after heating vs DMSO (PISA); higher = thermal stabilisation; K562 cells, 10 uM, 30 min; active = over 0.2 and 3.5 SD of the protein, either way, in both replicates (recomputed)
saracatinib = compound: CN1CCN(CCOc2cc(OC3CCOCC3)c3c(Nc4c(Cl)ccc5c4OCO5)ncnc3c2)CC1 [saracatinib]
Summary of the method: (§1)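 K562 cells at 2×10^6 cells/mL were exposed to 10 μM compound for 30 min, then aliquots were heated for 3 min across 48°C-58°C, pooled, and extracted in PBS containing 0.5% NP-40 at 4°C. The supernatant after 21,000xg for 90 min was taken as soluble protein and measured by TMTpro 16plex LC-MS/MS with channel sums equalised. Thermal stability is reported relative to control samples, with values from duplicates. Fold changes are given on a log2 scale.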

sotrastaurin = compound: CN1CCN(c2nc(C3=C(c4c[nH]c5ccccc45)C(=O)NC3=O)c3ccccc3n2)CC1 [sotrastaurin]
Summary of the method: as §1

alvocidib = compound: CN1CC[C@H](c2c(O)cc(O)c3c(=O)cc(-c4ccccc4Cl)oc23)[C@H](O)C1 [alvocidib]
Summary of the method: as §1

Tubastatin A = compound: CN1CCc2c(c3ccccc3n2Cc2ccc(C(=O)NO)cc2)C1 [Tubastatin A]
Summary of the method: as §1

[1] = compound: CNC(=O)C1=CC=CC=C1NC2=NC(=NC=C2Cl)NC3=C(C=C(C=C3)N4CCOCC4)OC
Summary of the method: as §1

defactinib = compound: CNC(=O)c1ccc(Nc2ncc(C(F)(F)F)c(NCc3nccnc3N(C)S(C)(=O)=O)n2)cc1 [defactinib]
Summary of the method: as §1

rucaparib = compound: CNCc1ccc(-c2[nH]c3cc(F)cc4c3c2CCNC4=O)cc1 [rucaparib]
Summary of the method: as §1

[2] = compound: CNc1nc(-c2ccc3c(N)n[nH]c3c2)cc(N2C[C@@H](C(=O)NC3CCCCC3)CC[C@H]2C)n1
Summary of the method: as §1

encorafenib = compound: COC(=O)N[C@@H](C)CNc1nccc(-c2cn(C(C)C)nc2-c2cc(Cl)cc(NS(C)(=O)=O)c2F)n1 [encorafenib]
Summary of the method: as §1

[3] = compound: COC(=O)[C@H](CCSC)NC(=O)C1=C(C=C(C=C1)NC[C@H](CS)N)C2=CC=CC=C2
Summary of the method: as §1

[4] = compound: COC1=CC=C(C=C1)CN2C=CC3=C2C=C(C=C3)C(=O)NO
Summary of the method: as §1

filanesib = compound: CON(C)C(=O)N1N=C(c2cc(F)ccc2F)S[C@@]1(CCCN)c1ccccc1 [filanesib]
Summary of the method: as §1

zotarolimus = compound: CO[C@H]1C[C@@H]2CC[C@@H](C)[C@@](O)(O2)C(=O)C(=O)N2CCCC[C@H]2C(=O)O[C@H]([C@H](C)C[C@@H]2CC[C@H](n3cnnn3)[C@H](OC)C2)CC(=O)[C@H](C)/C=C(\C)[C@@H](O)[C@@H](OC)C(=O)[C@H](C)C[C@H](C)/C=C/C=C/C=C/1C [zotarolimus]
Summary of the method: as §1

idasanutlin = compound: COc1cc(C(=O)O)ccc1NC(=O)[C@@H]1N[C@@H](CC(C)(C)C)[C@](C#N)(c2ccc(Cl)cc2F)[C@H]1c1cccc(Cl)c1F [idasanutlin]
Summary of the method: as §1

alisertib = compound: COc1cc(Nc2ncc3c(n2)-c2ccc(Cl)cc2C(c2c(F)cccc2OC)=NC3)ccc1C(=O)O [alisertib]
Summary of the method: as §1

[5] = compound: COc1cc2nc(-c3cc(F)ccc3O)nc(N[C@@H]3CNC[C@H]3C(C)(C)O)c2cc1OC
Summary of the method: as §1

gefitinib = compound: COc1cc2ncnc(Nc3ccc(F)c(Cl)c3)c2cc1OCCCN1CCOCC1 [gefitinib]
Summary of the method: as §1

[6] = compound: COc1cccc2cc(-c3nc([C@H]4CC[C@H](C(=O)O)CC4)n4ncnc(N)c34)[nH]c12
Summary of the method: as §1

lapatinib = compound: CS(=O)(=O)CCNCc1ccc(-c2ccc3ncnc(Nc4ccc(OCc5cccc(F)c5)c(Cl)c4)c3c2)o1 [lapatinib]
Summary of the method: as §1

pictilisib = compound: CS(=O)(=O)N1CCN(Cc2cc3nc(-c4cccc5[nH]ncc45)nc(N4CCOCC4)c3s2)CC1 [pictilisib]
Summary of the method: as §1

Measured: log2 fold change

SNRPB isoform 3 (UniProt P14678)
inactive: saracatinib 0.113 | sotrastaurin 0.059 | alvocidib 0.104 | Tubastatin A -0.052 | [1] 0.044 | defactinib 0.194 | rucaparib 0.047 | [2] -0.057 | encorafenib -0.004 | [3] 0.011 | [4] -0.046 | filanesib 0.079 | zotarolimus -0.015 | idasanutlin 0.041 | alisertib -0.05 | [5] -0.014 | gefitinib -0.056 | [6] 0.016 | lapatinib 0.036 | pictilisib -0.066

SMG5 (UniProt Q9UPR3)
inactive: saracatinib 0.049 | sotrastaurin -0.022 | alvocidib -0.143 | Tubastatin A -0.002 | [1] -0.009 | defactinib -0.098 | [2] -0.157 | [3] -0.052 | [4] -0.038 | filanesib 0.234 | zotarolimus 0.021 | idasanutlin 0.146 | alisertib 0.019 | [5] 0.028 | gefitinib -0.137 | [6] -0.085 | lapatinib 0.095

SMG7 isoform 4 (UniProt Q92540)
inactive: saracatinib -0.045 | sotrastaurin -0.116 | alvocidib -0.345 | Tubastatin A -0.003 | [1] 0.087 | defactinib -0.131 | rucaparib 0.171 | [2] 0.019 | encorafenib 0.101 | [3] -0.065 | [4] -0.025 | filanesib 0.06 | zotarolimus 0.169 | [5] 0.242 | gefitinib -0.166 | lapatinib -0.077 | pictilisib -0.019

SORD (UniProt Q00796)
inactive: saracatinib 0.042 | sotrastaurin 0.066 | alvocidib -0.004 | Tubastatin A -0.034 | [1] -0.049 | defactinib 0.002 | rucaparib -0.014 | [2] -0.01 | encorafenib -0.014 | [3] 0 | [4] -0.001 | filanesib -0.001 | zotarolimus -0.011 | idasanutlin -0.004 | alisertib -0.062 | [5] 0.033 | gefitinib 0.001 | [6] 0.038 | lapatinib -0.028 | pictilisib 0.066

Looked up one by one from the list above (2):
SMG5 (UniProt Q9UPR3)
inactive: saracatinib 0.049 | sotrastaurin -0.022 | alvocidib -0.143 | Tubastatin A -0.002 | [1] -0.009 | defactinib -0.098 | [2] -0.157 | [3] -0.052 | [4] -0.038 | filanesib 0.234 | zotarolimus 0.021 | idasanutlin 0.146 | alisertib 0.019 | [5] 0.028 | gefitinib -0.137 | [6] -0.085 | lapatinib 0.095

SMG7 isoform 4 (UniProt Q92540)
inactive: saracatinib -0.045 | sotrastaurin -0.116 | alvocidib -0.345 | Tubastatin A -0.003 | [1] 0.087 | defactinib -0.131 | rucaparib 0.171 | [2] 0.019 | encorafenib 0.101 | [3] -0.065 | [4] -0.025 | filanesib 0.06 | zotarolimus 0.169 | [5] 0.242 | gefitinib -0.166 | lapatinib -0.077 | pictilisib -0.019

The list continues.

SLC9A3R1 (UniProt O14745)
inactive: saracatinib -0.01 | sotrastaurin 0.043 | alvocidib 0.011 | Tubastatin A 0.001 | [1] -0.004 | defactinib -0.021 | rucaparib -0.031 | [2] -0.011 | encorafenib -0.028 | [3] 0.007 | [4] 0.021 | filanesib -0.024 | zotarolimus -0.032 | idasanutlin 0.011 | alisertib -0.037 | [5] 0 | gefitinib 0 | [6] 0.038 | lapatinib 0.012 | pictilisib 0.017

SPAG7 (UniProt O75391)
inactive: saracatinib 0.014 | sotrastaurin -0.012 | alvocidib -0.023 | Tubastatin A -0.007 | [1] -0.001 | defactinib -0.034 | rucaparib -0.025 | [2] -0.003 | encorafenib -0.04 | [3] 0.05 | [4] -0.027 | filanesib 0.036 | zotarolimus 0.019 | idasanutlin -0.006 | alisertib -0.05 | [5] 0.02 | gefitinib 0.08 | [6] 0.03 | lapatinib 0.003 | pictilisib -0.013

SMG8 isoform 2 (UniProt Q8ND04)
inactive: saracatinib -0.087 | sotrastaurin 0.127 | alvocidib 0.092 | Tubastatin A 0.12 | [1] -0.188 | defactinib 0.095 | rucaparib -0.037 | [2] 0.02 | encorafenib 0.194 | [3] -0.107 | [4] 0.119 | filanesib 0.23 | zotarolimus -0.013 | idasanutlin 0.126 | [5] 0.171 | gefitinib 0.155 | lapatinib 0.039 | pictilisib 0.133

SNRNP70 (UniProt P08621)
inactive: saracatinib -0.028 | sotrastaurin 0.093 | alvocidib 0.247 | Tubastatin A 0.039 | [1] -0.086 | defactinib 0.488 | rucaparib 0.292 | [2] -0.055 | encorafenib 0 | [3] -0.028 | [4] -0.055 | filanesib 0.377 | zotarolimus -0.011 | idasanutlin 0.163 | alisertib -0.167 | [5] 0.16 | gefitinib -0.032 | [6] 0.005 | lapatinib 0.011 | pictilisib 0.05

SNF8 (UniProt Q96H20)
inactive: saracatinib 0.031 | sotrastaurin -0.026 | alvocidib -0.047 | Tubastatin A -0.031 | [1] -0.038 | defactinib -0.033 | rucaparib -0.062 | [2] -0.032 | encorafenib -0.006 | [3] 0.014 | [4] 0.132 | filanesib -0.052 | zotarolimus -0.019 | idasanutlin 0.041 | alisertib -0.03 | [5] -0.042 | gefitinib 0 | [6] 0.017 | lapatinib 0.008 | pictilisib -0.081

SLC9A8 isoform 2 (UniProt Q9Y2E8)
inactive: saracatinib -0.02 | sotrastaurin 0.063 | alvocidib 0.093 | Tubastatin A -0.013 | [1] -0.009 | defactinib -0.019 | rucaparib 0.044 | [2] -0.093 | encorafenib 0.226 | [3] 0.002 | filanesib -0.046 | zotarolimus 0.055 | idasanutlin 0.028 | alisertib 0.011 | [5] -0.095 | gefitinib 0.063 | [6] 0.039 | lapatinib 0.031

SMAD5 (UniProt Q99717)
inactive: saracatinib -0.002 | sotrastaurin -0.053 | alvocidib 0.027 | Tubastatin A 0.049 | [1] -0.049 | defactinib -0.01 | [2] -0.009 | [3] -0.007 | [4] 0.022 | filanesib 0.015 | zotarolimus -0.035 | idasanutlin 0.065 | alisertib -0.128 | gefitinib -0.001 | [6] -0.216 | pictilisib -0.122

SNAP29 (UniProt O95721)
inactive: saracatinib 0.017 | sotrastaurin -0.006 | alvocidib 0.004 | Tubastatin A -0.029 | [1] -0.037 | defactinib -0.014 | rucaparib -0.009 | [2] -0.06 | encorafenib -0.012 | [3] 0.029 | [4] 0.03 | filanesib -0.043 | zotarolimus -0.075 | idasanutlin -0.003 | alisertib -0.074 | [5] -0.023 | gefitinib -0.021 | [6] 0 | lapatinib 0.043 | pictilisib 0.06

SNAPIN (UniProt O95295)
inactive: saracatinib 0.01 | sotrastaurin 0.029 | alvocidib 0.001 | Tubastatin A -0.031 | [1] -0.06 | defactinib -0.031 | rucaparib -0.001 | [2] 0.017 | encorafenib -0.06 | [3] 0.023 | [4] -0.084 | filanesib -0.04 | zotarolimus 0.02 | idasanutlin -0.01 | alisertib -0.099 | [5] 0.023 | gefitinib 0.007 | [6] 0.08 | lapatinib -0.037 | pictilisib 0.007

SMYD3 (UniProt Q9H7B4)
inactive: saracatinib -0.19 | sotrastaurin -0.21 | alvocidib 0.162 | Tubastatin A -0.118 | [1] 0.034 | defactinib 0.156 | [2] 0.037 | [3] -0.24 | filanesib 0.051 | zotarolimus 0.137 | idasanutlin -0.015 | alisertib 0.046 | [5] 0.065 | gefitinib 0.098 | [6] -0.052 | lapatinib 0.005 | pictilisib 0.087

SMIM15 (UniProt Q7Z3B0)
inactive: saracatinib 0.126 | sotrastaurin -0.034 | alvocidib -0.058 | Tubastatin A 0.053 | [1] -0.062 | defactinib -0.071 | rucaparib 0.124 | [2] 0.063 | encorafenib 0.027 | [3] -0.058 | [4] -0.284 | filanesib -0.289 | zotarolimus 0.033 | idasanutlin -0.175 | alisertib 0.048 | gefitinib -0.004 | [6] -0.019 | pictilisib -0.181

SNCA (UniProt P37840)
inactive: saracatinib 0.022 | sotrastaurin 0.063 | alvocidib -0.016 | Tubastatin A 0.026 | [1] -0.055 | defactinib -0.009 | rucaparib -0.024 | [2] -0.024 | encorafenib 0.001 | [3] 0.051 | [4] -0.006 | filanesib -0.04 | zotarolimus 0.014 | idasanutlin -0.052 | alisertib -0.08 | [5] 0.052 | gefitinib 0.014 | [6] 0.041 | lapatinib 0.002 | pictilisib -0.029

SMNDC1 (UniProt O75940)
inactive: saracatinib 0.031 | sotrastaurin 0.073 | alvocidib 0.091 | Tubastatin A -0.038 | [1] 0.01 | defactinib 0.153 | rucaparib 0.039 | [2] -0.036 | encorafenib -0.027 | [3] 0.012 | [4] -0.014 | filanesib 0.053 | zotarolimus -0.043 | idasanutlin 0.072 | alisertib -0.005 | [5] 0.075 | gefitinib -0.002 | [6] 0.012 | lapatinib -0.003 | pictilisib 0.042
